{
  "sequences": {"note": "Protein sequences, listed by entry. Tags and fused reporters are not part of them. Lines headed by an entry give the natural chain unless they say otherwise; changes in a name come on top.", "UniProt P27037": "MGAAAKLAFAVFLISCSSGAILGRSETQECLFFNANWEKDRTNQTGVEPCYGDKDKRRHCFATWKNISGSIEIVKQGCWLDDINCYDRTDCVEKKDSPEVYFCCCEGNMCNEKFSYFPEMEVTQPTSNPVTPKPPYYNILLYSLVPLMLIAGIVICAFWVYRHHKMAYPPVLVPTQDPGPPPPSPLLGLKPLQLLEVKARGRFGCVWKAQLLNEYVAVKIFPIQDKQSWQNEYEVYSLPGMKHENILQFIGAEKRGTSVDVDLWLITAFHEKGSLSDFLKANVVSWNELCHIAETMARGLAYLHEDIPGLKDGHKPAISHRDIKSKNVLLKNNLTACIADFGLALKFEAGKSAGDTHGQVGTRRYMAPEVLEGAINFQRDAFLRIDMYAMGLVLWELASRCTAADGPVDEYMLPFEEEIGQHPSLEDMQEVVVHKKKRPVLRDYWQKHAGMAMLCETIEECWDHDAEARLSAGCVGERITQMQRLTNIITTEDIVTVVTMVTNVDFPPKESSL"},
  "source": "patent US20100028331A1",
  "molecular_target": "T1, GDF-11 (UniProt O95390)",
  "T1 sequence (looked up)": "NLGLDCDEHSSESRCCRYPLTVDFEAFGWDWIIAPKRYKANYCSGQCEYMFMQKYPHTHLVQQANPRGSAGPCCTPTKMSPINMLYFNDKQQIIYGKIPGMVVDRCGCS",
  "assay": "Biacore SPR; GDF-11 amine-coupled on CM5 chip",
  "note": "These are yes or no findings as the source states them, for the method shown. Some results given as binding are weak or reduced against the parent protein; the word gives no strength.",
  "data": [
    {"substance": "ActRIIa-mFc (from UniProt P27037 21-135) (Fc fusion)", "values": [
      {"measurement": "binding", "result": "binds"}
    ]}
  ]
}
